From patent US8697747B2, “Enhancing coagulation or reducing fibrinolysis” (THe UAB Research Foundation, priority 2009, dated 2014)

Columns and labels:
normal plasma thrombi = test: Electron microscopy of thrombus ultrastructure, normal plasma; parameters: species or system human; settings: 100 μM CORM-2 vs 0 μM
[1] = tested on: FXIII-deficient plasma thrombi; test: Electron microscopy of thrombus ultrastructure, FXIII-deficient plasma; parameters: species or system human; settings: 100 μM CORM-2 vs 0 μM
[2] = highest magnification (60,000-fold)

SMILES: [C-]#[O+].[C-]#[O+].[C-]#[O+].[C-]#[O+].[C-]#[O+].[C-]#[O+].[Cl][Ru][Cl].[Cl][Ru][Cl] [CORM-2, tricarbonyldichlororuthenium (II) dimer]
- thin fiber architecture in thrombus ultrastructure (normal plasma thrombi; [2]): no remarkable difference in the thin fiber architecture
- thick fiber formation in thrombus ultrastructure (normal plasma thrombi; low magnification (5,000-fold)): a reduction in thick fiber formation
- thin fiber architecture in thrombus ultrastructure [1, 2]: an increase in the thin fiber architecture
- thick and fine fiber content in thrombus ultrastructure ([1]; low magnification (5,000-fold)): a reduction in thick fiber formation coupled with enhanced fine fiber content
